PubChem BioAssay AID1508588 | Peter MacCallum Cancer Centre | 2020
The deposit covers about 18,000 reagents; this is a part drawn at random. 790 of all reagents (4.4%) were called active. 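Calls rest on a combination of fold-change classes in drug and vehicle arms, not all shown here.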 Reagents against one gene are numbered here. A reagent listed more than once was tested more than once; the source does not tell the runs apart.

- Assay: 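Which gene losses make BRAF-mutant melanoma cells more responsive to vemurafenib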 (primary screen)
- Cell system: human WM266.4 melanoma cells (BRAF V600 mutant)
- Reagent: siRNA pool against human genes, 40 nM
- Time to read-out: 96 h from transfection to read-out
- Challenge: vemurafenib 300 nM (about IC25), added 48 h after transfection, for 48 h; comparison arm got DMSO vehicle only
- Detection: 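Cell gain (DAPI nuclei at end minus before drug, mean of two replicates) and medium lactate by absorbance per cell, both as ratio to non-targeting siRNA, also grouped into fold-change classes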
- Scale: cell gain with vemurafenib: higher = more cell gain than with non-targeting siRNA; lactate per cell with vemurafenib: higher = more lactate made per cell
- Hit rule: 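Enhancement is called by pairing each knock-down's vehicle-arm and drug-arm fold-change classes for viability or glycolysis; which class combinations qualify is not given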
- Meaning of the calls: active = enhances vemurafenib effect; inactive = no enhancement seen

no.	gene knocked down	pool no.	cell gain with vemurafenib	lactate per cell with vemurafenib	Outcome
1	PRDM11	1	0.68	1.28	inactive
2	COG6	1	1.06	1.6	inactive
3	UBE2W	1	0.67	0.77	inactive
4	LINS1	1	0.78	0.8	inactive
5	GAN	1	0.87	0.52	inactive
6	OLIG1	1	0.17	2.23	inactive
7	TRIP11	1	0.5	1.16	inactive
8	FIRRM	1	0.24	0.94	inactive
9	NUTF2	1	-0.04	3.33	inactive
10	BRF1	1	0.55	1.14	inactive
11	FBH1	1	1.1	0.92	inactive
12	F2	1	0.51	0.9	inactive
13	THRB	1	0.43	1.02	inactive
14	EFCAB5	1	1.07	0.65	inactive
15	RPS4X	1	-0.2	3.01	inactive
16	ACAA1	1	0.68	0.58	inactive
17	PPP1R42	1	0.61	0.9	inactive
18	ZC3H18-DT	1	0.84	0.94	inactive
19	LRRC23	1	0.88	1	inactive
20	ABHD12B	1	0.48	0.4	inactive
21	SNX13	1	0.35	0.6	inactive
22	DRAXIN	1	0.48	1.21	inactive
23	ALDH16A1	1	0.47	1.22	inactive
24	BAG1	1	0.47	2.62	inactive
25	UBR7	1	0.95	0.8	inactive
26	CRLF1	1	0.21	0.35	active
27	HOXB8	1	0.32	1.13	inactive
28	SPMIP9	1	0.27	1.05	inactive
29	SPRR2E	1	0.29	0.18	active
30	CCSAP	1	0.28	1.04	inactive
31	PWP2	1	0.26	0.76	inactive
32	RPAP2	1	0.07	1.28	inactive
33	PDK3	1	0.53	0.16	active
34	POU5F1	1	0.8	1.05	inactive
35	C16orf54	1	0.36	1.16	inactive
36	GNG10	1	0.67	1.42	inactive

Looked up above.
Under “cell gain with vemurafenib”, ACAA1 shows 0.68
Under “Outcome”, LINS1 shows inactive
Value of PRDM11 in “lactate per cell with vemurafenib”: 1.28
GAN, cell gain with vemurafenib: 0.87
CRLF1, cell gain with vemurafenib → 0.21
Entry of F2 under “cell gain with vemurafenib”: 0.51

More records follow:
no.	gene knocked down	pool no.	cell gain with vemurafenib	lactate per cell with vemurafenib	Outcome
37	PCGF5	1	0.89	0.84	inactive
38	PARP3	1	0.5	0.48	inactive
39	IFT74	1	0.68	0.58	inactive
40	MPP1	1	0.58	0.84	inactive
41	ATG16L1	1	1.22	0.67	inactive
42	NT5C3B	1	0.81	1.42	inactive
43	ITGA5	1	1.05	0.74	inactive
44	EXOSC5	1	0.83	0.78	inactive
45	CASP14	1	0.71	0.92	inactive
46	GRK1	1	0.58	1.08	inactive
47	GRK1	1	1.06	1.07	inactive
48	GTF2F2	1	1.12	0.4	inactive
49	KRTAP5-8	1	0.58	1.11	inactive
50	GALE	1	0.71	0.74	inactive
51	RBL1	1	0.72	1.15	inactive
52	MCM7	1	0.54	0.82	inactive
53	CHRNA5	1	0.56	0.56	inactive
54	PTCHD1	1	0.23	0.94	inactive
55	RUNX3	1	0.27	0.76	inactive
56	ELMOD2	1	0.79	0.97	inactive
57	EFCAB3	1	1.23	0.58	inactive
58	OR51E2	1	0.88	0.6	inactive
59	SLC6A18	1	0.41	1.44	inactive
60	PLRG1	1	0.65	0.66	inactive
61	NNT	1	0.4	0.5	inactive
62	CASP3	1	0.86	1.19	inactive
63	ISL1	1	0.74	0.86	inactive
64	ADPGK	1	0.42	1	inactive
65	UBL4A	1	0.64	1.23	inactive
66	KCNJ9	1	1.1	0.66	inactive
67	CC2D2A	1	0.78	1.06	inactive
68	ARHGAP10	1	0.57	0.68	inactive
69	GSK3A	1	0.61	0.68	inactive
70	FAM110C	1	-0.15	0.02	active
71	RBM23	1	0.39	1.62	inactive
72	CFAP263	1	0.35	0.76	inactive
73	OSBPL11	1	0.62	0.56	inactive
74	SCN11A	1	0.66	0.4	active
75	APMAP	1	0.82	0.82	inactive
76	CNGA2	1	0.53	1.09	inactive
77	FBXO42	1	0.29	1.62	inactive
78	SUMO2	1	0.69	0.74	inactive
79	PML	1	0.35	1.27	inactive
80	PDK1	1	1.02	0.46	inactive
81	SPANXD	1	-0.07	1.08	inactive
82	SPANXD	2	-0.11	1.25	inactive
83	CSNK1E	1	0.13	2.09	inactive
84	MT4	1	1.17	1.06	inactive
